# Screening data, single-dose tests

The chains behind the UniProt entries cited, without tags or fusion partners. Residues count along the entry.
UniProt P9WPC5, whole entry: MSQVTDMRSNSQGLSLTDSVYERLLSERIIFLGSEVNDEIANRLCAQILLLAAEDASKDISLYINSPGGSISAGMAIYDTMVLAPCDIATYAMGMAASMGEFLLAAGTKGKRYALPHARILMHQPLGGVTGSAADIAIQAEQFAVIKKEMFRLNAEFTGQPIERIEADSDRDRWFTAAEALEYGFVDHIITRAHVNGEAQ
UniProt P9WPC3, whole entry partner: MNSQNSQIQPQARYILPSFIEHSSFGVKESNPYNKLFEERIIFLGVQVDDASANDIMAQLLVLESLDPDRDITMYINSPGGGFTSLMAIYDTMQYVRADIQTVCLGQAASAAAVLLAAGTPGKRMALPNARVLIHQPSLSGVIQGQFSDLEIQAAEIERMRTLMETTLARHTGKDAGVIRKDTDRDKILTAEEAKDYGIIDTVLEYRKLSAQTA
UniProt P9WNZ1, whole entry: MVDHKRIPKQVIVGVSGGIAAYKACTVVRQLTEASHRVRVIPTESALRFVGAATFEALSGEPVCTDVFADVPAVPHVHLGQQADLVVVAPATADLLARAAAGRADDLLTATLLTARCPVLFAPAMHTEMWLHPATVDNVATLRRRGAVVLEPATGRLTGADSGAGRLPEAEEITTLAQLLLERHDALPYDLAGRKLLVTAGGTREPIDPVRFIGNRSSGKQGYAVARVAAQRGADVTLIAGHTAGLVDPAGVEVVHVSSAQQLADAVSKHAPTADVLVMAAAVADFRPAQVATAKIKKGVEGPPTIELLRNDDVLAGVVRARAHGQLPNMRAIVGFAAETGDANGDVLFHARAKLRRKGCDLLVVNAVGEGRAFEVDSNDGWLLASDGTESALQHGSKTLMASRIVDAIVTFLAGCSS
UniProt Q8IDJ8, 1-583: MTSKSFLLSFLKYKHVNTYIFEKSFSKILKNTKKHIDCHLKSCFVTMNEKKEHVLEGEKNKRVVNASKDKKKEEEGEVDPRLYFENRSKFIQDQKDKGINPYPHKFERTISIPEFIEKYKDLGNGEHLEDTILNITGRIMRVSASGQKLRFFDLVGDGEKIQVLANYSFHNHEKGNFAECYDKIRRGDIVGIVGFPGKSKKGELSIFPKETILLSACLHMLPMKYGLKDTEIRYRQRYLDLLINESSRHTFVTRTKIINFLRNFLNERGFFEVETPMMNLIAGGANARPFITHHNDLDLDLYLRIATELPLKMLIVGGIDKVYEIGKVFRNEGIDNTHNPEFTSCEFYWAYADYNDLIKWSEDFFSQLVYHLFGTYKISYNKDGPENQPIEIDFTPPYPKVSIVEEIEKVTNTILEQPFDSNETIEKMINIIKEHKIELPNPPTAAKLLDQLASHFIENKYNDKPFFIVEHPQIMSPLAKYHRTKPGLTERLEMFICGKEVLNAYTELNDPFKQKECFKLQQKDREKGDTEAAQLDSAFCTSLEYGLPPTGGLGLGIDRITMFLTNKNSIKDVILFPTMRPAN
UniProt Q4DA54, 1-478: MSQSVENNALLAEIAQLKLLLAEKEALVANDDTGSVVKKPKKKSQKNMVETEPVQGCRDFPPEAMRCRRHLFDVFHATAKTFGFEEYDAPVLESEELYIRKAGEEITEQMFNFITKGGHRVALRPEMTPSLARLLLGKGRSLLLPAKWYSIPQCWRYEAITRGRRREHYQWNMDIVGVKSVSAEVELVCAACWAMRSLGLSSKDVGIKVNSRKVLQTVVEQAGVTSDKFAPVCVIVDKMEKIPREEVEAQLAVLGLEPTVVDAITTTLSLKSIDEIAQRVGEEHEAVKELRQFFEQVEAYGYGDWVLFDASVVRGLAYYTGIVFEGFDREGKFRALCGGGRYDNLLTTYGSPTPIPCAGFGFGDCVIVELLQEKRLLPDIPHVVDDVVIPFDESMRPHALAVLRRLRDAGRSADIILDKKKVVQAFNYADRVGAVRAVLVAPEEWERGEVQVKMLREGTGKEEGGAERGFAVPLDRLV
UniProt I6X8D2, whole entry: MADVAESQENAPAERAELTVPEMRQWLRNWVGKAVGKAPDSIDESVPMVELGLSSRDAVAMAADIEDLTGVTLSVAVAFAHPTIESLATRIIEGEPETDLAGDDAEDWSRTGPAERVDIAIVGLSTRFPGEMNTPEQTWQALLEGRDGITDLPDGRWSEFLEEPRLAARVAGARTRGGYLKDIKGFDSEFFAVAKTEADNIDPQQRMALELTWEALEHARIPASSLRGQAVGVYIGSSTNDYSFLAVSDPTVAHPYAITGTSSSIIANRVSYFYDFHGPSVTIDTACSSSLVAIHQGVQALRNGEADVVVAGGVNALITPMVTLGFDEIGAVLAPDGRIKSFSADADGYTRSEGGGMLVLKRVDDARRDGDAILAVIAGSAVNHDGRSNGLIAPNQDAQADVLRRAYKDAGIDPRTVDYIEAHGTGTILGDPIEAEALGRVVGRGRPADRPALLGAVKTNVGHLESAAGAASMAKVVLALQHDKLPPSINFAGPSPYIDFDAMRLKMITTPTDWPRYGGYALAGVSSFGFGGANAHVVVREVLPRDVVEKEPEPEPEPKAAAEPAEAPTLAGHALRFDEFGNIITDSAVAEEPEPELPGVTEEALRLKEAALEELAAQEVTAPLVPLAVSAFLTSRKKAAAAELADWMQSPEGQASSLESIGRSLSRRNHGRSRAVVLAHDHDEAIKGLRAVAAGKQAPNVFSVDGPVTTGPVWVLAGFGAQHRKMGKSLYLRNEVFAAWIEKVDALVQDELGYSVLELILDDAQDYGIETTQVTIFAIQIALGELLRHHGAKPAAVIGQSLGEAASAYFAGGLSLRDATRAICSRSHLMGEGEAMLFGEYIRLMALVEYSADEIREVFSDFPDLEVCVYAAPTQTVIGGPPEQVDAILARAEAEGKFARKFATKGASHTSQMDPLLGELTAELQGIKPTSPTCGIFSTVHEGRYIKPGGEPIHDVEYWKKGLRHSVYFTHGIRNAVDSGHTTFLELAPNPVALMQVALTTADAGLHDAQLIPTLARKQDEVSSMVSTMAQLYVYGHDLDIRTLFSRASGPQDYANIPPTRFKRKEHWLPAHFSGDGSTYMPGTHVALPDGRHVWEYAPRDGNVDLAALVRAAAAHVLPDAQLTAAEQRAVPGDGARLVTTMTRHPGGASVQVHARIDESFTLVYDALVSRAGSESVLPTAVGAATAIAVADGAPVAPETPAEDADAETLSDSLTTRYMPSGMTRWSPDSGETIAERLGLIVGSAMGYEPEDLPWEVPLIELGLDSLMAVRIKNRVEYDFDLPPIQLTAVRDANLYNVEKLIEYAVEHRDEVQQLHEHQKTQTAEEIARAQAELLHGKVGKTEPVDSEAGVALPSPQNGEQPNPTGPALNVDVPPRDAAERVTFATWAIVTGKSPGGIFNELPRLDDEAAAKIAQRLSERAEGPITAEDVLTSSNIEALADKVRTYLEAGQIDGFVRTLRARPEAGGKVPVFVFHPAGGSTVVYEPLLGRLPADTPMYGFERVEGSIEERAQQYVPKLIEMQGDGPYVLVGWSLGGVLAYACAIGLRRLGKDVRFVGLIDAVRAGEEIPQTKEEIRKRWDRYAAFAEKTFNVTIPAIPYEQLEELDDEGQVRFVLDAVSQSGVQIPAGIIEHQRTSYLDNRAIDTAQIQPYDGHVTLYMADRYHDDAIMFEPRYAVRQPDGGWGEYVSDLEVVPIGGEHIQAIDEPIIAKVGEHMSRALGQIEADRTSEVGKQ

From ChEMBL document CHEMBL3988442, “University of Dundee, Small-Polar-MMV Screening Library” (2021).

ClpP1P2: 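Protease assay of ClpP1P2, read by the AMC dye that it sets free. Target: ClpP1P2, Mycobacterium tuberculosis (UniProt P9WPC5 and UniProt P9WPC3). Compounds at 50 µM. Direction is inferred from only a few compounds that gave an IC50; most scored high, so higher reads as stronger inhibition. Most other retested compounds had strongly negative values. Of about 69,000 compounds tested this way, about 10 (0.015%) reached 50% or more in at least one test.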
CoaBC: 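Enzyme assay of CoaBC with a phosphate dye (Biomol Green) read at 650 nm. Target: Coenzyme A biosynthesis protein CoaBC, Mycobacterium tuberculosis (UniProt P9WNZ1). Concentration: 30 µM. Higher reads as stronger inhibition, judged from the few compounds that gave an IC50. Most strong results did not repeat in a second test. About 67,000 compounds were tested under these conditions; 0.06% (about 40) showed 50% or more at least once.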
PfKRS1: 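Lysine-tRNA ligase, Plasmodium falciparum 3D7 (UniProt Q8IDJ8). Enzyme assay of the cytosolic lysyl-tRNA synthetase in 384-well plates, read by luminescence. Compounds at 30 µM. Direction is inferred from only a few compounds that gave an IC50; most scored high, so higher reads as stronger inhibition. About 69,000 compounds were tested under these conditions; 0.071% (about 49) showed 50% or more at least once.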
TcHisRS: 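Histidine-tRNA ligase, Trypanosoma cruzi CL Brener (UniProt Q4DA54). Enzyme assay of histidyl-tRNA synthetase; the read-out is not stated. Concentration: 30 µM. Higher reads as stronger inhibition (inferred: compounds with an IC50 in retests scored well above the rest). About 69,000 compounds were tested under these conditions; 0.045% (about 31) showed 50% or more at least once.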
Pks13 thioesterase: 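Polyketide synthase Pks13, Mycobacterium tuberculosis (UniProt I6X8D2). Enzyme assay of the thioesterase domain of polyketide synthase 13; the read-out is not stated. Concentration: 30 µM. The record gives no direction; the compounds picked for IC50 retests had high values, so higher reads as stronger inhibition. Of about 67,000 compounds tested this way, about 300 (0.46%) reached 50% or more in at least one test.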

The filed quantity is “Percent Effect” (%). The controls that fix the scale are not given in the record; negative values are as filed. The compounds are a random part of those screened. A dash means the value is not listed here; it may have been measured.

structure,ClpP1P2,CoaBC,PfKRS1,TcHisRS,Pks13 thioesterase
O=C(CN1CCCC1Cn1cncn1)Nc1nncs1 (stereo unspecified),-1.47%,1.531%,7.579%,-18.3%,-40.74%
CC(NC(=O)Cn1cc(C(N)=O)c(-c2ccccc2)n1)C1CC1 (stereo unspecified),8.864%,14.43%,0.4242%,-15.3%,-19.97%
Cc1cnc(C(=O)NCC2CCOc3ccccc3C2)cn1 (stereo unspecified),-1.296%,-3.317%,-3.871%,0%,-0.393%
COc1ccc(-c2cc(C(=O)NCCn3ccnc3)n(C)n2)cc1,-6.545%,-2.331%,0.2441%,0.3759%,-95.82%
COc1ccccc1N1CCC(CNS(=O)(=O)c2c(C)nn(C)c2C)C1 (stereo unspecified),1.857%,4.423%,2.449%,10.59%,0.6648%
Cc1ccc(C(=O)NS(=O)(=O)Cc2ccon2)c(C)c1,-3.362%,2.703%,1.816%,14.12%,-1.352%
CCN(CC)C(CNS(=O)(=O)c1ccc(C(N)=O)cc1)c1ccco1 (stereo unspecified),-7.284%,1.269%,9.574%,3.139%,-15.33%
CN1CC(=O)N(c2cccc(F)c2)CC12CCN(S(C)(=O)=O)C2 (stereo unspecified),-2.908%,7.712%,-0.3376%,3.867%,-27.01%
CCN(CC)CCNCc1cc(O)c2cc(C)ccc2n1,-9.329%,0.86%,2.843%,7.143%,2.73%
Cc1nnc(NC(=O)c2c3c(nn2C2CCS(=O)(=O)C2)CCC3)s1 (stereo unspecified),2.033%,10.54%,5.46%,1.587%,1.054%
COc1c(CNCC(O)c2cccc(F)c2)c(C(C)C)nn1C (stereo unspecified),13.12%,5.897%,2.979%,0.3774%,-17.46%
CC(C)C1CN(c2ncc(F)cn2)CCC(=O)N1Cc1ccc(F)cc1 (stereo unspecified),1.229%,10.13%,4.35%,3.252%,-10.06%
O=C(NCC1CCC2(CCNCC2)CO1)c1ccno1 (stereo unspecified),-2.397%,-,1.728%,7.595%,10.14%
CC(=O)N1CCC2(CC1)CN(C(C)=O)CC21CCNC1=O (stereo unspecified),7.902%,-5.344%,-0.8719%,4.854%,-56.51%
CC(C)n1cnnc1CN(C)C(=O)CCn1cnc2ccccc2c1=O,2.859%,-27.07%,0.3201%,2.062%,-9.046%
Cc1ccccc1C(=O)N1CC(C(=O)NCC2CC2)C2(CCOCC2)C1 (stereo unspecified),5.038%,-0.6316%,0.6412%,2.151%,-25.1%
CCn1ccnc1CN1CCCC1c1c(C)nn(C)c1OC (stereo unspecified),8.246%,4.819%,0.9888%,2.128%,-16.44%
Cn1c(Cn2ccnc2)nnc1C1CCCN(c2ncccn2)C1 (stereo unspecified),7.093%,12.02%,1.257%,1.163%,-33.48%
CCc1ccc(NC(=O)N2C[C@H]3CC[C@@]4(N=C(C)N(C)C4=O)[C@H]3C2)cc1,7.582%,6.274%,2.542%,-3.067%,-0.07975%
COc1cc(C(=O)N2CCC(O)(CN3CCOCC3)C(C)(C)C2)ccn1 (stereo unspecified),-5.655%,-6.813%,2.507%,6.186%,-24%
O[C@@H]1C[C@@](CNCc2ccccn2)(COc2cccnc2)C[C@@H]1O,4.15%,2.428%,5.221%,5.435%,17.63%
Cn1c(Cn2ncc(N3CCCC3)cc2=O)nc2ccccc21,15.65%,6.914%,-2.631%,13.43%,-18.22%
NC(=O)c1ccc(CN2C(=O)C3(CCNCC3)Nc3ccccc32)cc1,17.88%,-40.55%,17.34%,0.8%,4.751%
Cc1cc(C(=O)N2CCC3(CC2)C(=O)N(C)CCN3CC(C)C)c(C)o1,-3.277%,3.094%,3.048%,5.528%,-7.681%
O=C(c1ccc[nH]1)N1CCc2nnc(Cn3cccn3)n2CC1,-7.209%,3.273%,4.631%,6.145%,-7.227%
c1cncc(-c2noc(CNC3CCc4ncnn4C3)n2)c1 (stereo unspecified),-15.33%,6.849%,1.498%,4.373%,-17%
CNC(=O)CC1CCN(Cc2nc(-c3ccc(SC)cc3)oc2C)CC1,-3.892%,-16.84%,1.943%,7.5%,-8.682%
COCCOc1cccc(C(=O)N2CCCC(n3ccnc3C)C2)c1 (stereo unspecified),-2.616%,-1.318%,4.275%,0.3802%,-17.16%
COCCn1ccc2c(NC(=O)c3n[nH]c4c3CCC4)cccc21,0.3116%,1.337%,3.894%,13.86%,-8.181%
COc1ccc(OCC(=O)NC(C)c2ccccc2)c(C(=O)O)c1 (stereo unspecified),0.3867%,1.762%,4.902%,2.542%,-12.14%
CCOc1ccc(C(=O)N2CCCS2(=O)=O)cc1OC,-35.58%,1.044%,1.536%,4.52%,-7.888%
NC(=O)c1cc(C2CCCN(CCOCC3CC3)C2)n[nH]1 (stereo unspecified),-16.06%,1.053%,-0.3815%,6.745%,-8.783%
COc1ccc(OC)c(CNCc2c(C)nc3sc(C)cn23)c1,8.418%,-3.427%,0.5958%,2.174%,3.32%
CCN(c1ccc(C(=O)Nc2c(C)nn(C(C)C)c2C)cc1)C(C)C,-1.442%,-0.3636%,3.7%,5.102%,-8.936%
COc1ccc(-n2cnnc2SCC(=O)NC(C)C)cn1,4.076%,10.33%,0.1144%,3.333%,-15.19%
CCCn1nnnc1CSCc1cn2c(C)cccc2n1,-24.9%,2.927%,1.111%,0.9804%,-6.249%
CNc1ncc(C(=O)N2CCCC(CO)(CCCOC)C2)cn1 (stereo unspecified),2.416%,-0.2433%,-0.2055%,1.818%,6.003%
COc1ccc(C(CC(=O)O)NC(=O)CCc2cccs2)cc1OC (stereo unspecified),-3.087%,-4.707%,1.105%,0%,-11.66%
OC(CN1CCN(Cc2nc(C3CC3)no2)CC1)c1ccccc1 (stereo unspecified),-24.48%,-2.273%,1.111%,8.069%,3.124%
OCCN1CCC(CNCc2ccccc2OC(F)(F)F)CC1,-36.86%,2.302%,0.6404%,2.941%,-7.1%
CC(=O)Nn1c(C)cc(CN2CCC(c3ccncc3)CC2)c1C,5.909%,4.959%,3.323%,6.358%,-30.43%
Cn1cc(CN2CCOC(c3nccnc3-c3cccc(F)c3)C2)cn1 (stereo unspecified),14.45%,2.564%,0.1831%,-8.647%,-18.93%
COC(=O)c1cccc(NC(=O)CN2CCN(S(C)(=O)=O)CC2)c1,9.614%,-17.18%,1.434%,-5.085%,-5.856%
CCCn1cc(NC(=O)Nc2ccc(F)c(C(=O)NC)c2)cn1,-8.543%,2.913%,2.308%,7.035%,4.082%
O=C(C1CN(Cc2ccoc2)CC12CCOCC2)N1CCCC1 (stereo unspecified),18.1%,10.45%,0.5143%,-4.598%,-11.51%
COCCNC(=O)[C@H]1C[C@@H]2CCN(CCc3ccccc3)C[C@@H]2O1,-4.204%,1.36%,1.678%,8.163%,2.939%
Clc1cccc(-c2nc(CNC3CCc4ncnn4C3)co2)c1 (stereo unspecified),5.169%,0.9032%,-0.3705%,3.448%,-17.64%
O=C(NCCO)c1sc2ncccc2c1C1CNCCO1 (stereo unspecified),0.1219%,4.54%,2.933%,5.426%,-0.8517%
Cc1cc(CN2CCN(S(C)(=O)=O)CC(C(=O)N(C)C)C2)no1 (stereo unspecified),6.4%,1.937%,4.324%,6.667%,-3.067%
CCOc1cncc(NCCc2nnc3ccccn23)n1,-1.171%,-1.071%,-2.309%,9.091%,-28.76%
O=C(Cn1cc(I)cn1)N1CCc2ccccc2C1,-1.386%,1.48%,7.359%,2.732%,-21.19%
Cc1cnn(CC(C)NCc2ccc(C#N)cc2F)c1 (stereo unspecified),-2.882%,7.172%,4.679%,2.128%,-0.9216%
Cc1cccc(NCc2nc(C)ccc2O)c1,-19.48%,6.796%,2.938%,11.6%,-11.91%
Cc1noc(C)c1CN1CCn2cc(CN3CCCC3)nc2C1,-1.419%,4.485%,3.852%,16.2%,9.735%
CCOCCOC(C)C(=O)NCc1ccc(N2CCCCC2)cc1 (stereo unspecified),-9.931%,0.7212%,-5.155%,-2.532%,-1.717%

6 of the entries, repeated:

structure	ClpP1P2	CoaBC	PfKRS1	TcHisRS	Pks13 thioesterase
Cn1c(Cn2ccnc2)nnc1C1CCCN(c2ncccn2)C1 (stereo unspecified)	7.093%	12.02%	1.257%	1.163%	-33.48%
CCN(CC)C(CNS(=O)(=O)c1ccc(C(N)=O)cc1)c1ccco1 (stereo unspecified)	-7.284%	1.269%	9.574%	3.139%	-15.33%
COc1ccccc1N1CCC(CNS(=O)(=O)c2c(C)nn(C)c2C)C1 (stereo unspecified)	1.857%	4.423%	2.449%	10.59%	0.6648%
CCOc1ccc(C(=O)N2CCCS2(=O)=O)cc1OC	-35.58%	1.044%	1.536%	4.52%	-7.888%
COC(=O)c1cccc(NC(=O)CN2CCN(S(C)(=O)=O)CC2)c1	9.614%	-17.18%	1.434%	-5.085%	-5.856%
CCN(CC)CCNCc1cc(O)c2cc(C)ccc2n1	-9.329%	0.86%	2.843%	7.143%	2.73%